Values of other authors in US7297702B2, “Contraception method using competitive progesterone antagonists and novel compounds useful therein” (Schering Aktiengesellschaft, priority 2004, dated 2007).
At least one compound was matched to its structure with a doubt left.

Key:
female = conditions: in the female; cited from earlier work
human female = conditions: cited from earlier work
endometrium = conditions: 10 mg peroral on day 5 and day 8 after the LH peak; cited from earlier work
humans = conditions: single dose of 200 mg, early luteal treatment (LH+2); cited from earlier work

Which results are given for `CC#C[C@]1(O)CC[C@H]2[C@@H]3CCC4=CC(=O)CCC4=C3[C@@H](c3ccc(N(C)C)cc3)C[C@@]21C` [RU 486, 11β-[4-N,N-(dimethylamino)phenyl]-17β-hydroxy-17α-propinyl-estra-4,9(10)-dien-3-one]?
abortive dose (female): 200 to 600 mg; dose having an ovulation inhibition effect (human female; human female): 50 to 100 mg; dissociation of central and endometrial effects (human female; humans): little or no dissociation; endometrial effect and hormonal changes (progesterone and estradiol concentrations) (endometrium): endometrial desynchronization in the female without hormonal changes; effect on length of the cycle (humans): does not impair the length of the cycle
